# Data taken from patent US9150586B2, “Piperidino-dihydrothienopyrimidine sulfoxides and their use for treating COPD and asthma” (Boehringer Ingelheim International GmbH, priority 2011, dated 2015).
# At least one compound was matched to its structure with a doubt left. Some compounds share one wording; it may come from a single statement.
# Test system: LPS-induced neutrophil influx into bronchoalveolar lavage fluid
# Assay: LPS-induced lung inflammation model: inhibition of LPS-induced neutrophil influx into bronchoalveolar lavage fluid
# Format: in vivo, male Wistar rats
# Settings: pretreatment of rats, oral
# Description: The anti-inflammatory activity of Examples 1 and 2 and of Prior art compounds A and D was assessed in an in vivo LPS-induced lung inflammation model in rats.
# As a measure of the pharmacological potency of the above mentioned compounds the half-maximal effective dose (ED50) in regard to the inhibition of lipopolysaccharide-induced (LPS-induced) neutrophil influx into the bronchoalveolar lavage fluid (BALF) was determined by assessing the dose response relationship. Bacterial endotoxins (lipopolysaccharides [LPS]) are components of the outer bacterial cell membrane which play an important role in the pathogenesis of infections with gram-negative bacteria. It is known that inhalation of such aerosolized LPS induces a dose-dependent increase in neutrophils to lung tissues and airspaces in rats which may be detected by analyzing the amount of neutrophils in the bronchoalveolar lavage fluid (BALF). However, this dose-dependent increase of neutrophils in the BALF should be diminished in a dose-dependent way in the presence of an effective PDE4-inhibitor.
# Male Wistar rats (HanWistar) from an approved local distributor were used for the experiments. The ordered weight of the animals was in the range of 200-250 g. Animals were fasted overnight before the experiment. A total number of 32 animals were used for each experiment. Eight animals (n=8) per dose were used for the treatment groups, […].
# The animals of the LPS-control and of the negative control groups received“vehicle only” (“vehicle only” corresponds to 10 ml/kg body weight 0.5% Natrosol solution). The other groups were treated with the different doses of either Example compound 1, Example compound 2, Prior art compound A or Prior art compound D respectively (see Table D).
# The amount of compound for the highest concentration tested for each compound was suspended in 10 ml 0.5% Natrosol (Hydroxyethylcellulose) solution and then diluted to the respective concentrations as shown in Table D. The respective compound suspension or “vehicle only” (10 ml/kg body weight 0.5% Natrosol solution) was administered orally by gavage. The resulting doses of the individual compounds corresponded to Table D: […]
# Determination of neutrophil content of the BALF was performed using an ADVIA 120 blood hemacytometer (Bayer Diagnostics). Neutrophil data were normalised (Positive Control (=LPS treatment alone)=100%, Negative Control (no LPS treatment, administration of “vehicle only”)=0%) and expressed as percent of LPS control. The ED50 was calculated using a nonlinear fit (with the Graph Pad Prism software and a sigmoidal dose response fit). […]
row,Structure (SMILES),inhibition of the LPS-induced neutrophil influx into the BALF (in words)
1,"[O-][S+]1CCc2nc(N3CCC(c4cccc(Cl)c4)CC3)nc(NC3(CO)CC3)c21 (stereo not shown) [Prior art compound D, reference compound]",led to an inhibition
2,"[O-][S+]1CCc2nc(N3CCC(c4ccc(Cl)cc4)CC3)nc(NC3(CO)CC3)c21 (stereo not shown) [Prior art compound A, reference compound]",led to an inhibition
3,"[O-][S+]1CCc2nc(N3CCC(c4ncc(Cl)cn4)CC3)nc(NC3(CO)CCC3)c21 (single isomer, unassigned) [Example 2]",led to an inhibition
4,"[O-][S+]1CCc2nc(N3CCC(c4ccc(Cl)cc4)CC3)nc(NC3(CO)CCC3)c21 (single isomer, unassigned) [Example 1]",led to an inhibition
